The target in assay [1] is FLAG-tagged ALIX (ALG2-interacting protein X) (UniProt Q8WUM4). As to the kind of experiment: co-IP; FLAG-ALIX and V5-POSH or V5-POSH V14A co-expressed in HEK 293 cells; lysis buffer 10 mM Tris HCl pH 7.5, 150 mM NaCl, 5 mM MgCl2, 1% octyl β-D-glucopyranoside; ALIX immunoprecipitated with anti-FLAG beads, washed three times, POSH detected by Western blot with anti-V5. In general terms: A western blot detects proteins with antibodies after separation by electrophoresis.

Sequences of proteins named here, by UniProt entry; tags and fusion partners are left off. A change or cut given only in a name is not applied to a line headed by its entry.
UniProt Q8WUM4: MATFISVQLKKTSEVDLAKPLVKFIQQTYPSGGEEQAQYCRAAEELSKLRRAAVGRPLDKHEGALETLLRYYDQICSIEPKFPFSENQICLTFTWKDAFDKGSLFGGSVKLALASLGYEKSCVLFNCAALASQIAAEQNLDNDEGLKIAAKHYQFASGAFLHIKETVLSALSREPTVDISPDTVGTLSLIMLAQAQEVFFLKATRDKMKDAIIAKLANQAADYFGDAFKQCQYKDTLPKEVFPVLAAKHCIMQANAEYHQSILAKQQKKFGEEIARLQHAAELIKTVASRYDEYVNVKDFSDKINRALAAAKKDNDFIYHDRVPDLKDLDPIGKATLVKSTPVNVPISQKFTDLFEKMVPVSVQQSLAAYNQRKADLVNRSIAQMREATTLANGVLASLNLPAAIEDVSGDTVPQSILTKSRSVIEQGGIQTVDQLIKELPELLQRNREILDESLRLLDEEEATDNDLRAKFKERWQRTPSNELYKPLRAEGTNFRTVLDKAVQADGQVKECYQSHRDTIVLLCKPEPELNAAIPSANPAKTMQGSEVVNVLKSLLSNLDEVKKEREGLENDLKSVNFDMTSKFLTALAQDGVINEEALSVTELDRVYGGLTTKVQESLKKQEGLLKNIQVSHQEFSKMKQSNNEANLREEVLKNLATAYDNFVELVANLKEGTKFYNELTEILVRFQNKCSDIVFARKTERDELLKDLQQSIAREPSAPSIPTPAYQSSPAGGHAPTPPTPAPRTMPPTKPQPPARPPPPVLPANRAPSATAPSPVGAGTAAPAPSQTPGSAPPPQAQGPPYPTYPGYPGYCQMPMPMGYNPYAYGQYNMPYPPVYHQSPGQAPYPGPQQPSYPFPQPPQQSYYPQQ
UniProt Q7Z6J0: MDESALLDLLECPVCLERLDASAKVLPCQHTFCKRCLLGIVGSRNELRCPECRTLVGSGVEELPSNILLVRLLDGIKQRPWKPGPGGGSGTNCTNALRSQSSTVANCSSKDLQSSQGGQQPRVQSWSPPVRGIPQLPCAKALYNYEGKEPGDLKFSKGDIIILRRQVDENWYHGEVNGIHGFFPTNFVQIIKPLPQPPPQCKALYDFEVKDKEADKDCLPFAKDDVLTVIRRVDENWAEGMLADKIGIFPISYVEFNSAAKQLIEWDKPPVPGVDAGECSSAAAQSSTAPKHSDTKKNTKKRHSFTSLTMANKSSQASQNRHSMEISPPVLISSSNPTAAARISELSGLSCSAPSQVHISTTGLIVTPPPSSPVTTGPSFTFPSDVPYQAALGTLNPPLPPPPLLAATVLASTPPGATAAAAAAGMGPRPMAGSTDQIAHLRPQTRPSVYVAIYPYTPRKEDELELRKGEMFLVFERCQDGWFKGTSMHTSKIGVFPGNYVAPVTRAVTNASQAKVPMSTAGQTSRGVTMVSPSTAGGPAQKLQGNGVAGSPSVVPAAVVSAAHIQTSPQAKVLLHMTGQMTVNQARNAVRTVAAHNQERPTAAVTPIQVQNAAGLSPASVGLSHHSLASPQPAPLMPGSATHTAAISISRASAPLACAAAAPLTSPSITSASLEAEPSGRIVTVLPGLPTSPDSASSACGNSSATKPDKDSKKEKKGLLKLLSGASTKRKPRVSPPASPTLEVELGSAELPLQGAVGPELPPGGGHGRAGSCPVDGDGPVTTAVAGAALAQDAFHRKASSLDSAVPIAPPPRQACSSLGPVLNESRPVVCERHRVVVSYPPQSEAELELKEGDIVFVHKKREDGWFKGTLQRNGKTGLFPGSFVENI

The target in assay [2] is GST-FLAG-ALIX-6xHIS (recombinant full-length ALIX) (UniProt Q8WUM4). Nature of the assay: co-IP; bacterially expressed GST-Flag-ALIX and POSH (50 ng each) incubated in lysis buffer at 30°C for 45 min; ALIX immunoprecipitated with anti-FLAG beads, washed three times, Western blot with anti-POSH (PT1); both purified.

Results are given in words; binding and its absence hold for the method and conditions named. For part of these data: In cells and extracts the contact can be indirect. Some entries that bind do so weakly or less than the wild type.

“V5-tagged POSH V14A (RING finger mutant) (from UniProt Q7Z6J0 1-888)”: in assay [1], the binding result was “binds”.

For “bacterially expressed maltose-binding protein (MBP)-POSH (from UniProt Q7Z6J0 1-888)”, in assay [2], the binding result was “binds”.

For the substance “V5-tagged POSH (plenty of SH3) (from UniProt Q7Z6J0 1-888)”, the binding result in assay [1] is “binds”.

Source of the values: paper PMC2680910.
